Some of the results follow. Many values rest on one well or one pass, so single values are uncertain.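 Cells were imaged in 1,536-well plates, and nuclei stained with an antibody against cleaved PARP were counted against all DNA-stained nuclei to give the apoptosis fraction. Screening doses were chosen to leave most cells alive, and resting and induced cleaved-PARP levels differ strongly between cell lines.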
Test system: RVH-421
Assay: cleaved PARP positive nuclei fraction relative to DMSO control; melanoma cells; higher = more apoptosis
Details: library dose: low library concentration; 72 h

For O=C(O)[C@@H]1[O][Sb](=[O])([O][Sb]2(=[O])[O][C@H]([C@H](O)CO)[C@H](O)[C@H](C(=O)O)[O]2)[O][C@H]([C@H](O)CO)[C@@H]1O (stereo not given in full) [stibogluconate] + OCCn1cc(-c2cnc3nnn(Cc4ccc5ncccc5c4)c3n2)cn1 [PF04217903] (first compound 2 µM, partner dose 1 µM), which “cleaved PARP positive nuclei fraction” value is on record?
Its value is 204%.

For C[C@@H](Oc1cc(-c2cnn(C3CCNCC3)c2)cnc1N)c1c(Cl)ccc(F)c1Cl [Crizotinib] + Oc1cc(-c2nc(-c3ccccc3)[nH]c2-c2ccncc2)ccc1Cl [L779450] (first compound 0.2 µM, partner dose 0.2 µM), which “cleaved PARP positive nuclei fraction” value is on record?
Its value is 113%.

For C[C@@H](Oc1cc(-c2cnn(C3CCNCC3)c2)cnc1N)c1c(Cl)ccc(F)c1Cl [Crizotinib] + CCCCCCCCCCCC1=C(O)C(=O)C=C(O)C1=O [Embelin] (first compound 0.2 µM, partner dose 1.2 µM), which “cleaved PARP positive nuclei fraction” value is on record?
The value was 68.5%.

With Nc1ncn([C@H]2C[C@H](O)[C@@H](CO)O2)c(=O)n1 [decitabine] + O=C(Nc1ccccc1)c1cc([N+](=O)[O-])ccc1Cl [GW9662] (first compound 0.1 µM, partner dose 2 µM) as the compound, how does the “cleaved PARP positive nuclei fraction” value read?
Its value is 74.2%.

With C[C@@H](Oc1cc(-c2cnn(C3CCNCC3)c2)cnc1N)c1c(Cl)ccc(F)c1Cl [Crizotinib] + O=c1cc(-c2cccc3c2Sc2ccccc2S3)oc(N2CCOCC2)c1 [KU55933] (first compound 0.2 µM, partner dose 1 µM) as the compound, how does the “cleaved PARP positive nuclei fraction” value read?
The value was 178%.

For CS(=O)(=O)CCNCc1ccc(-c2ccc3ncnc(Nc4ccc(OCc5cccc(F)c5)c(Cl)c4)c3c2)o1 [lapatinib] + OCCn1cc(-c2cnc3nnn(Cc4ccc5ncccc5c4)c3n2)cn1 [PF04217903] (first compound 0.8 µM, partner dose 1 µM), which “cleaved PARP positive nuclei fraction” value is on record?
Its value is 44.5%.

Cc1cc(Nc2cc(N3CCN(C)CC3)nc(/C=C/c3ccccc3)n2)n[nH]1 + N#Cc1c(O)c2c(-c3ccc(-c4ccccc4O)cc3)csc2[nH]c1=O [A769662] (first compound 0.04 µM, partner dose 2 µM) was tested. Which “cleaved PARP positive nuclei fraction” value did it give?
The value was 71.5%.

CCCS(=O)(=O)Nc1ccc(F)c(C(=O)c2c[nH]c3ncc(Cl)cc23)c1F + COc1cc2ncnc(Nc3ccc(Oc4ccccc4)cc3)c2cc1OC [SrcI1] (first compound 0.08 µM, partner dose 2 µM) was tested. Which “cleaved PARP positive nuclei fraction” value did it give?
Its value is 220%.

How did the “cleaved PARP positive nuclei fraction” value turn out when Nc1nc(F)nc2c1ncn2[C@@H]1O[C@H](CO)[C@@H](O)[C@@H]1O [fludarabine] + CO[C@@H]1[C@H](N(C)C(=O)c2ccccc2)C[C@H]2O[C@]1(C)n1c3ccccc3c3c4c(c5c6ccccc6n2c5c31)C(=O)NC4 [Midostaurin] (first compound 0.2 µM, partner dose 0.08 µM) was run?
The value was 98.4%.

Which “cleaved PARP positive nuclei fraction” value does the source give for Nc1ncn([C@H]2C[C@H](O)[C@@H](CO)O2)c(=O)n1 [decitabine] + O=C(O)c1ccc(-c2c[nH]c3ncc(-c4ccccc4)cc23)cc1C1CCCC1 [GSK650394] (first compound 0.1 µM, partner dose 0.16 µM) here?
The value was 105%.

With CN1CCN(c2ccc3nc(-c4c(N)c5c(F)cccc5[nH]c4=O)[nH]c3c2)CC1 [Dovitinib] + Oc1cc(-c2nc(-c3ccccc3)[nH]c2-c2ccncc2)ccc1Cl [L779450] (first compound 0.1 µM, partner dose 0.2 µM) as the compound, how does the “cleaved PARP positive nuclei fraction” value read?
The value was 205%.

For CS(=O)(=O)CCNCc1ccc(-c2ccc3ncnc(Nc4ccc(OCc5cccc(F)c5)c(Cl)c4)c3c2)o1 [lapatinib] + O=S(=O)(c1ccccc1)N(CC(F)(F)F)c1ccc(C(O)(C(F)(F)F)C(F)(F)F)cc1 [T0901317] (first compound 0.8 µM, partner dose 1.4 µM), which “cleaved PARP positive nuclei fraction” value is on record?
The value was 123%.

CNC(=O)c1cc(Oc2ccc(NC(=O)Nc3ccc(Cl)c(C(F)(F)F)c3)cc2)ccn1 [sorafenib] + O=C(O)c1ccc(-c2c[nH]c3ncc(-c4ccccc4)cc23)cc1C1CCCC1 [GSK650394] (first compound 0.4 µM, partner dose 0.16 µM) was tested. Which “cleaved PARP positive nuclei fraction” value did it give?
The value was 97.2%.

How did the “cleaved PARP positive nuclei fraction” value turn out when CC(C)C[C@H](NC(=O)[C@H](Cc1ccccc1)NC(=O)c1cnccn1)B(O)O [Bortezomib] + NC(=O)Nc1cc(-c2cccc(F)c2)sc1C(=O)N[C@H]1CCCNC1 [AZD7762] (first compound 0.001 µM, partner dose 0.02 µM) was run?
The value was 53.5%.

For Nc1nc(F)nc2c1ncn2[C@@H]1O[C@H](CO)[C@@H](O)[C@@H]1O [fludarabine] + NCC(=O)Nc1ccc(-n2nc(C(F)(F)F)cc2-c2ccc3c(ccc4ccccc43)c2)cc1 [OSU03012] (first compound 0.2 µM, partner dose 1 µM), which “cleaved PARP positive nuclei fraction” value is on record?
The value was 83.5%.

How did the “cleaved PARP positive nuclei fraction” value turn out when CC(C)C[C@H](NC(=O)[C@H](Cc1ccccc1)NC(=O)c1cnccn1)B(O)O [Bortezomib] + COc1cc2c(Oc3ccc4[nH]c(C)cc4c3F)ncnc2cc1OCCCN1CCCC1 [cediranib] (first compound 0.001 µM, partner dose 0.4 µM) was run?
Its value is 146%.

CC(C)C[C@H](NC(=O)[C@H](Cc1ccccc1)NC(=O)c1cnccn1)B(O)O [Bortezomib] + C[C@@H]1CCN(C(=O)CC#N)C[C@@H]1N(C)c1ncnc2[nH]ccc12 [CP690550] (first compound 0.001 µM, partner dose 1 µM) was tested. Which “cleaved PARP positive nuclei fraction” value did it give?
The value was 91.3%.

For Nc1ccn([C@@H]2O[C@H](CO)[C@@H](O)C2(F)F)c(=O)n1 [gemcitabine] + C=CCn1c(=O)c2cnc(Nc3ccc(N4CCN(C)CC4)cc3)nc2n1-c1cccc(C(C)(C)O)n1 [MK1775] (first compound 0.0004 µM, partner dose 0.02 µM), which “cleaved PARP positive nuclei fraction” value is on record?
Its value is 86.8%.

CNC(=O)c1cc(Oc2ccc(NC(=O)Nc3ccc(Cl)c(C(F)(F)F)c3)cc2)ccn1 [sorafenib] + COc1cc2c(Oc3ccc4[nH]c(C)cc4c3F)ncnc2cc1OCCCN1CCCC1 [cediranib] (first compound 0.4 µM, partner dose 0.4 µM) was tested. Which “cleaved PARP positive nuclei fraction” value did it give?
The value was 36.2%.

How did the “cleaved PARP positive nuclei fraction” value turn out when CNC(=O)c1cc(Oc2ccc(NC(=O)Nc3ccc(Cl)c(C(F)(F)F)c3)cc2)ccn1 [sorafenib] + Cc1ccc(NC(=O)c2cccc(N(C)C)c2)cc1NC(=O)c1ccc(O)cc1 [ZM336372] (first compound 0.4 µM, partner dose 2 µM) was run?
Its value is 82.4%.

Which “cleaved PARP positive nuclei fraction” value does the source give for C[C@@H](Oc1cc(-c2cnn(C3CCNCC3)c2)cnc1N)c1c(Cl)ccc(F)c1Cl [Crizotinib] + CCN(CC)CCCCNc1ncc2cc(-c3cc(OC)cc(OC)c3)c(NC(=O)NC(C)(C)C)nc2n1 [PD173074] (first compound 0.2 µM, partner dose 0.1 µM) here?
Its value is 136%.

For Nc1ncn([C@H]2C[C@H](O)[C@@H](CO)O2)c(=O)n1 [decitabine] + O=c1cc(-c2cccc3c2Sc2ccccc2S3)oc(N2CCOCC2)c1 [KU55933] (first compound 0.1 µM, partner dose 1 µM), which “cleaved PARP positive nuclei fraction” value is on record?
The value was 263%.

Which “cleaved PARP positive nuclei fraction” value does the source give for O=C(O)c1ccc2c(c1)nc(Nc1cccc(Cl)c1)c1ccncc12 + O=C(O)c1ccc(-c2c[nH]c3ncc(-c4ccccc4)cc23)cc1C1CCCC1 [GSK650394] (first compound 0.4 µM, partner dose 0.16 µM) here?
Its value is 71%.

With Cc1cc(Nc2cc(N3CCN(C)CC3)nc(/C=C/c3ccccc3)n2)n[nH]1 + C=CCn1c(=O)c2cnc(Nc3ccc(N4CCN(C)CC4)cc3)nc2n1-c1cccc(C(C)(C)O)n1 [MK1775] (first compound 0.04 µM, partner dose 0.02 µM) as the compound, how does the “cleaved PARP positive nuclei fraction” value read?
Its value is 43.7%.

How did the “cleaved PARP positive nuclei fraction” value turn out when Nc1ccn([C@@H]2O[C@H](CO)[C@@H](O)C2(F)F)c(=O)n1 [gemcitabine] + O=C(Nc1cccc(Cl)c1)Nc1ncc(CCNc2ncnc3ccsc23)s1 [SNS314] (first compound 0.0004 µM, partner dose 0.0008 µM) was run?
The value was 48.1%.

Which “cleaved PARP positive nuclei fraction” value does the source give for C[C@@H](Oc1cc(-c2cnn(C3CCNCC3)c2)cnc1N)c1c(Cl)ccc(F)c1Cl [Crizotinib] + CO[C@@H]1[C@H](N(C)C(=O)c2ccccc2)C[C@H]2O[C@]1(C)n1c3ccccc3c3c4c(c5c6ccccc6n2c5c31)C(=O)NC4 [Midostaurin] (first compound 0.2 µM, partner dose 0.08 µM) here?
Its value is 46.5%.

CC(C)C[C@H](NC(=O)[C@H](Cc1ccccc1)NC(=O)c1cnccn1)B(O)O [Bortezomib] + COc1ccc2c(c1)CCC1C2CCC2(C)C(NCCCCCCN3C(=O)C=CC3=O)CCC12 [U73122] (first compound 0.001 µM, partner dose 0.4 µM) was tested. Which “cleaved PARP positive nuclei fraction” value did it give?
The value was 140%.

Which “cleaved PARP positive nuclei fraction” value does the source give for Nc1ccn([C@@H]2O[C@H](CO)[C@@H](O)C2(F)F)c(=O)n1 [gemcitabine] + OCCn1cc(-c2cnc3nnn(Cc4ccc5ncccc5c4)c3n2)cn1 [PF04217903] (first compound 0.0004 µM, partner dose 1 µM) here?
Its value is 60.6%.

How did the “cleaved PARP positive nuclei fraction” value turn out when CNC(=O)c1cc(Oc2ccc(NC(=O)Nc3ccc(Cl)c(C(F)(F)F)c3)cc2)ccn1 [sorafenib] + CO[C@@H]1[C@H](N(C)C(=O)c2ccccc2)C[C@H]2O[C@]1(C)n1c3ccccc3c3c4c(c5c6ccccc6n2c5c31)C(=O)NC4 [Midostaurin] (first compound 0.4 µM, partner dose 0.08 µM) was run?
The value was 333%.

How did the “cleaved PARP positive nuclei fraction” value turn out when O=C(O)[C@@H]1[O][Sb](=[O])([O][Sb]2(=[O])[O][C@H]([C@H](O)CO)[C@H](O)[C@H](C(=O)O)[O]2)[O][C@H]([C@H](O)CO)[C@@H]1O (stereo not given in full) [stibogluconate] + Cc1ccc(NC(=O)c2cccc(N(C)C)c2)cc1NC(=O)c1ccc(O)cc1 [ZM336372] (first compound 2 µM, partner dose 2 µM) was run?
The value was 86.5%.
